According to US10434116B2 (priority 2014, dated 2019):
Where a name gives a salt, the structure may show the parent alone.

Tested on: MERS-CoV
Assay: microbe, parasite or virus in culture
Type: cell-based
Conditions: Middle East respiratory syndrome-related coronavirus, Vero C1008, read-out: IC50 value for MERS-CoV (TCID50 assay)

## Cc1ccc(NC(=O)c2ccc(CN3CCN(C)CC3)cc2)cc1Nc1nccc(-c2cccnc2)n1 [Imatinib mesylate]
  IC50: 14.5 µM
